Results from patent publication US20150315279A1 (CELLERANT THERAPEUTICS, published 2015).

Target: keyhole limpet hemocyanin
Assay: ELISA, KLH coated at 2 ug/ml

binding: no binding (tested: 20 ug/ml)
B1: monoclonal antibody 4G9 (antibody, V domains shown)
VH: QVQLQQSGTELVRPGASVKLSCKASGYTFTDYEMHWVKQTPVHGLEWIGAIDPGTGGIAYNQKFKGKATLTADKSSSTAYMELRSLTSEDSAVYYCTLYDYDLAYWGQGTLVTVSA
VL: DVLMTQTPLSLPVSLGDQASISCRSSQSIVHSNGNTYLEWFLQKPGQSPKLLIYTVSNRFSGVPDRFSGSGSGTDFTLKISRVEAEDLGVYYCFQGSHVPPTFGGGTKLEIK

These are yes or no findings as the source states them, for the method shown. No end group written: not given here.
